Results on four molecules are retold here after PMC8612733.

The chains behind the UniProt entries cited, without tags or fusion partners.
UniProt P67809: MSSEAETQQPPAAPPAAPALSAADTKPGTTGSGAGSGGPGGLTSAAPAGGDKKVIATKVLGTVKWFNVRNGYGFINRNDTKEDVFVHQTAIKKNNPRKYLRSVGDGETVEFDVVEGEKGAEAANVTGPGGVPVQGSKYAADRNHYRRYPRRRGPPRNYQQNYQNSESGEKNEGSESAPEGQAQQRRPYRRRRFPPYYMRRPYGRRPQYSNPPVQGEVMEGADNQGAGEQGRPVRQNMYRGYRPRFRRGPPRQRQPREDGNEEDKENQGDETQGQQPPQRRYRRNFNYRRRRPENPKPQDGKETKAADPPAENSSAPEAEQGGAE
UniProt O60506: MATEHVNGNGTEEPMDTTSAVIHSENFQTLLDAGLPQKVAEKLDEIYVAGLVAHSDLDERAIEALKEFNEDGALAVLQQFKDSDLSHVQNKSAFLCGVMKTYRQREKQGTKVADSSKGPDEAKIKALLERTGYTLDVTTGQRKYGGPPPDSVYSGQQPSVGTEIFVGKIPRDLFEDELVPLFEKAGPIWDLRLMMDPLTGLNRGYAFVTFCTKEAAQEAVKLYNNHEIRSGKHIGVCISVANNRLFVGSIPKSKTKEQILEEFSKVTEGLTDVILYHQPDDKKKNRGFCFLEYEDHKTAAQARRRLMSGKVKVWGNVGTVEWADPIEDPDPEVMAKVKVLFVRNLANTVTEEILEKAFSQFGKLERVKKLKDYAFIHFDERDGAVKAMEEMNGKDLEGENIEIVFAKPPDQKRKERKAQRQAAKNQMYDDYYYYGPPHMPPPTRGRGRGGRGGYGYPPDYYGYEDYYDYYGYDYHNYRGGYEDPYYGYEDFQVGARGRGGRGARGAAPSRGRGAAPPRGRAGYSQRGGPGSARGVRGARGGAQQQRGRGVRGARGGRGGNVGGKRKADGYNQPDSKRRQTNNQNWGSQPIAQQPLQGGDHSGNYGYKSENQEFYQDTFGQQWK
UniProt Q9UKV8: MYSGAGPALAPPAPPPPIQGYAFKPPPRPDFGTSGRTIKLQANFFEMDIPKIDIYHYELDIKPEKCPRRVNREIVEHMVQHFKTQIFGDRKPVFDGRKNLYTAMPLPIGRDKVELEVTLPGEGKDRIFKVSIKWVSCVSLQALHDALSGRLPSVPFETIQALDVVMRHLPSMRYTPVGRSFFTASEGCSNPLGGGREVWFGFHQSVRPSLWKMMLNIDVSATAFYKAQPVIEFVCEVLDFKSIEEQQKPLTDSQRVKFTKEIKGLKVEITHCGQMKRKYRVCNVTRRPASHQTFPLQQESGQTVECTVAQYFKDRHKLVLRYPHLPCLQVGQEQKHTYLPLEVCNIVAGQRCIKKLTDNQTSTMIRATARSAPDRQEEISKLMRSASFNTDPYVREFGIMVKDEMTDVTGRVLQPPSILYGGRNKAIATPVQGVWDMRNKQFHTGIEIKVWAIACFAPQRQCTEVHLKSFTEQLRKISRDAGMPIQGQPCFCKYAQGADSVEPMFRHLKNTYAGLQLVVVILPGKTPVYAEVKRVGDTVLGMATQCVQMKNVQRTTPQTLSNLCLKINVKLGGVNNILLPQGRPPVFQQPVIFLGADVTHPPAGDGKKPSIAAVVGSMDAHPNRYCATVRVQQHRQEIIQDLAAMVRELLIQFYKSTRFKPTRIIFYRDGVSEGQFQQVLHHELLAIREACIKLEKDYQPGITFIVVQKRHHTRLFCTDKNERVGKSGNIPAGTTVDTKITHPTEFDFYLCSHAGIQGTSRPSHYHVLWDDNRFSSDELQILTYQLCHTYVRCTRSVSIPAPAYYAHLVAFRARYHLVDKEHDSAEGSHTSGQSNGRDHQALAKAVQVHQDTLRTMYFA

Assay [1] deals with EGFP-tagged YBX1 (human) (UniProt P67809). Put plainly: affinity purification with mass spectrometry; lysate of HEK293T cells transfected with EGFP-YBX1 in RIPA buffer; GFP-Trap agarose beads, 3 hr at 4 °C; washed with RIPA buffer; eluted in Laemmli buffer at 95 °C; LC-MS.
Assay [2] has as its target 3xFlag-tagged YBX1 (human) (UniProt P67809). Put plainly: affinity purification with mass spectrometry; lysate of HEK293T cells transfected with 3xFlag-YBX1 in RIPA buffer; ANTI-FLAG M2 Affinity Gel, 3 hr at 4 °C; washed with RIPA buffer; eluted with 3xFlag peptide; LC-MS.

No constants are given. Whether binding was seen depends on the method and setting. In cells and extracts the contact can be indirect. These calls come from enrichment with a bait or labelling near it, and not all partners need be listed.

In the case of SYNCRIP (from UniProt O60506 1-623), the binding entry in assay [1] and in assay [2] was “binds” throughout.

In the case of Ago2 (from UniProt Q9UKV8 1-859), the binding entry in assay [1] and in assay [2] was “binds” throughout.

B1: EDC4 (protein, UniProt Q6P2E9 1-1401)
chain: MASCASIDIEDATQHLRDILKLDRPAGGPSAESPRPSSAYNGDLNGLLVPDPLCSGDSTSANKTGLRTMPPINLQEKQVICLSGDDSSTCIGILAKEVEIVASSDSSISSKARGSNKVKIQPVAKYDWEQKYYYGNLIAVSNSFLAYAIRAANNGSAMVRVISVSTSERTLLKGFTGSVADLAFAHLNSPQLACLDEAGNLFVWRLALVNGKIQEEILVHIRQPEGTPLNHFRRIIWCPFIPEESEDCCEESSPTVALLHEDRAEVWDLDMLRSSHSTWPVDVSQIKQGFIVVKGHSTCLSEGALSPDGTVLATASHDGYVKFWQIYIEGQDEPRCLHEWKPHDGRPLSCLLFCDNHKKQDPDVPFWRFLITGADQNRELKMWCTVSWTCLQTIRFSPDIFSSVSVPPSLKVCLDLSAEYLILSDVQRKVLYVMELLQNQEEGHACFSSISEFLLTHPVLSFGIQVVSRCRLRHTEVLPAEEENDSLGADGTHGAGAMESAAGVLIKLFCVHTKALQDVQIRFQPQLNPDVVAPLPTHTAHEDFTFGESRPELGSEGLGSAAHGSQPDLRRIVELPAPADFLSLSSETKPKLMTPDAFMTPSASLQQITASPSSSSSGSSSSSSSSSSSLTAVSAMSSTSAVDPSLTRPPEELTLSPKLQLDGSLTMSSSGSLQASPRGLLPGLLPAPADKLTPKGPGQVPTATSALSLELQEVEPLGLPQASPSRTRSPDVISSASTALSQDIPEIASEALSRGFGSSAPEGLEPDSMASAASALHLLSPRPRPGPELGPQLGLDGGPGDGDRHNTPSLLEAALTQEASTPDSQVWPTAPDITRETCSTLAESPRNGLQEKHKSLAFHRPPYHLLQQRDSQDASAEQSDHDDEVASLASASGGFGTKVPAPRLPAKDWKTKGSPRTSPKLKRKSKKDDGDAAMGSRLTEHQVAEPPEDWPALIWQQQRELAELRHSQEELLQRLCTQLEGLQSTVTGHVERALETRHEQEQRRLERALAEGQQRGGQLQEQLTQQLSQALSSAVAGRLERSIRDEIKKTVPPCVSRSLEPMAGQLSNSVATKLTAVEGSMKENISKLLKSKNLTDAIARAAADTLQGPMQAAYREAFQSVVLPAFEKSCQAMFQQINDSFRLGTQEYLQQLESHMKSRKAREQEAREPVLAQLRGLVSTLQSATEQMAATVAGSVRAEVQHQLHVAVGSLQESILAQVQRIVKGEVSVALKEQQAAVTSSIMQAMRSAAGTPVPSAHLDCQAQQAHILQLLQQGHLNQAFQQALTAADLNLVLYVCETVDPAQVFGQPPCPLSQPVLLSLIQQLASDLGTRTDLKLSYLEEAVMHLDHSDPITRDHMGSVMAQVRQKLFQFLQAEPHNSLGKAARRLSLMLHGLVTPSLP
Regarding B1, the binding result in assay [1] and in assay [2] was “binds” in each case.

B2: MOV10 (protein, UniProt Q9HCE1 1-1003)
chain: MPSKFSCRQLREAGQCFESFLVVRGLDMETDRERLRTIYNRDFKISFGTPAPGFSSMLYGMKIANLAYVTKTRVRFFRLDRWADVRFPEKRRMKLGSDISKHHKSLLAKIFYDRAEYLHGKHGVDVEVQGPHEARDGQLLIRLDLNRKEVLTLRLRNGGTQSVTLTHLFPLCRTPQFAFYNEDQELPCPLGPGECYELHVHCKTSFVGYFPATVLWELLGPGESGSEGAGTFYIARFLAAVAHSPLAAQLKPMTPFKRTRITGNPVVTNRIEEGERPDRAKGYDLELSMALGTYYPPPRLRQLLPMLLQGTSIFTAPKEIAEIKAQLETALKWRNYEVKLRLLLHLEELQMEHDIRHYDLESVPMTWDPVDQNPRLLTLEVPGVTESRPSVLRGDHLFALLSSETHQEDPITYKGFVHKVELDRVKLSFSMSLLSRFVDGLTFKVNFTFNRQPLRVQHRALELTGRWLLWPMLFPVAPRDVPLLPSDVKLKLYDRSLESNPEQLQAMRHIVTGTTRPAPYIIFGPPGTGKTVTLVEAIKQVVKHLPKAHILACAPSNSGADLLCQRLRVHLPSSIYRLLAPSRDIRMVPEDIKPCCNWDAKKGEYVFPAKKKLQEYRVLITTLITAGRLVSAQFPIDHFTHIFIDEAGHCMEPESLVAIAGLMEVKETGDPGGQLVLAGDPRQLGPVLRSPLTQKHGLGYSLLERLLTYNSLYKKGPDGYDPQFITKLLRNYRSHPTILDIPNQLYYEGELQACADVVDRERFCRWAGLPRQGFPIIFHGVMGKDEREGNSPSFFNPEEAATVTSYLKLLLAPSSKKGKARLSPRSVGVISPYRKQVEKIRYCITKLDRELRGLDDIKDLKVGSVEEFQGQERSVILISTVRSSQSFVQLDLDFNLGFLKNPKRFNVAVTRAKALLIIVGNPLLLGHDPDWKVFLEFCKENGGYTGCPFPAKLDLQQGQNLLQGLSKLSPSTSGPHSHDYLPQEREGEGGLSLQVEPEWRNEL
B2: the binding result in assay [1] and in assay [2] was “binds” in each case.
